The target of assay [1] is T1, SPCLIP1 (Anopheles gambiae (endogenous in G3 strain hemolymph)).
T1 sequence: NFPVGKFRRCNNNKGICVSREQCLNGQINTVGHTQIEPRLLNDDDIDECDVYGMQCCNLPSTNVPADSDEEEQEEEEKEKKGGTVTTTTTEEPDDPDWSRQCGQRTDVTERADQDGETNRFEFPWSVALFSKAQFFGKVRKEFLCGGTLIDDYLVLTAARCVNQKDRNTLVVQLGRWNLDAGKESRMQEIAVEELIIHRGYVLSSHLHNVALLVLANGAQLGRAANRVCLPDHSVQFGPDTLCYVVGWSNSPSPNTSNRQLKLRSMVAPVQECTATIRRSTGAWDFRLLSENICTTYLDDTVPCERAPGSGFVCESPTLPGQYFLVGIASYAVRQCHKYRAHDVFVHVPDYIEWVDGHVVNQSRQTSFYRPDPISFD
Briefly: co-IP; agarose beads cross-linked to affinity purified anti-SPCLIP1 antibody (Pierce Co-IP kit); cleared hemolymph of 100 mosquitoes collected 15 min after E. coli bioparticle injection into PBS with 0.05% Triton X-100 and protease inhibitors; overnight at 4 °C; TEP1 detected by reducing western blot.

For assay [2] the target is unchanged. The assay is described as follows: condition: only mock challenge (PBS injection), without E. coli bioparticles; co-IP; as a1, but hemolymph collected 15 min after mock challenge (PBS injection, no E. coli bioparticles).

Results are given in words; binding and its absence hold for the method and conditions named. Binding seen in cells or lysates may run through a third protein. Some entries that bind do so weakly or less than the wild type.

B1: TEP1cut (protein, UniProt Q9GYW4 22-1340)
chain: LLVVGPKFIRANQEYTLVISNFNSQLSKVDLLLKLEGETDNGLSVLNVTKMVDVRRNMNRMINFNMPEELTAGNYKITIDGQRGFSFHKEAELVYLSKSISGLIQVDKPVFKPGDTVNFRVILLDTELKPPARVKSVYVTIRDPQRNVIRKWSTAKLYAGVFESDLQIVPTPMLGVWNISVEVEGEELVSKTFEVKEYVLSTFDVQVMPSVIPLEEHQAVNLTIEANYHFGKPVQGVAKVELYLDDDKLNQKKELTVYGKGQVELRFDNFAMDADQQDVRVKVSFIEQYTNRTVVKQSQITVYRYAYRVELIKESPQFRPGLPFKCALQFTHHDGTPAKGITGKVEVSDVGFETTTTSDNDGLIKLELQPSEGTEQLGINFNAVDGFFFYEDVNKVETVTDAYIKLELKSPIKRNKLMRFMVTCTERMTFFVYYVMSKGNIIDAGFMRPNKQTKYLLQLNATEKMIPKAKILIATVAGRTVVYDYADLDFQELRNNFDLSIDEQEIKPGRQIELSMSGRPGAYVGLAAYDKALLLFNKNHDLFWEDIGQVFDGFHAINENEFDIFHSLGLFARTLDDILFDSANEKTGRNALQSGKPIGKLVSYRTNFQESWLWKNVSIGRSGSRKLIEVVPDTTTSWYLTGFSIDPVYGLGIIKKPIQFTTVQPFYIVENLPYSIKRGEAVVLQFTLFNNLGAEYIADVTLYNVANQTEFVGRPDTDLSYTKSVSVPPKVGVPISFLIKARKLGEMAVRVKASIMLGHETDALEKVIRVMPESLAQPKMDTSFFCFDDYKNQTFPFNLDINKKADNGSKKIEFRLNPNLLTMVIKNLDNLLAVPTGCGEQNMVKFVPNILVLDYLYATGSKEQHLIDKATNLLRQGYQNQMRYRQTDGSFGVWEKSGSSVFLTAFVATSMQTASKYMNDIDAAMVEKALDWLASKQHSSGRFDETGKVWHKDMQGGLRNGVALTSYVLTALLENDIAKVKHAVVIQNGMNYLSNQLAFINNPYDLSIATYAMMLNGHTMKKEALDKLIDMSISDNNKKERYWGTTNQIETTAYALLSFVMAEKYLDGIPVMNWLVNQRYVTGSFPRTQDTFVGLKALTKLAEKISPSRNDYTVQLKYKKNTKYFNINSEQIDVQNFLEIPEDTKKLEINVGGIGFGLLEVIYQFDLNLVNFEHRFKLDLEKQNTGSDYELRLRVCANYIPELTDSQSNMALIEVTLPSGYVVDRNPISEQTTVNPIQNMEIRYGGTSVVLYYYKMGTERNCFTVTAYRRFKVALKRPAYVVVYDYYNTNLNAIKVYEVDKQNVCEICEEEDCPAECKK
On to B1, for which the binding entry in assay [1] is reported as “binds”; in assay [2], “no binding”.

B2: TEP1-F (protein, UniProt Q9GYW4 22-1340)
chain: B1 chain
B2: the binding entry in assay [1] was “binds weakly”; in assay [2] it was “no binding”.

(Values after PMC3764210.)
